PubChem BioAssay AID1053208, Peter MacCallum Cancer Centre – 2014
Shown is a random part of about 17,000 reagents. Of all reagents, 788 (4.7%) were called active. 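Calls rest on z-score classes alone; an extra cut-off of viability at most 70% of control was not applied to them.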 Further read-outs or replicates are left out here.

Assay: 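Find knock-downs that sensitise mouse osteosarcoma cells to doxorubicin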 (primary screen)
System: mouse osteosarcoma cells, early-passage culture from an engineered mouse model of fibroblastic bone tumour
Knock-down reagent: siRNA pool against mouse genes, 40 nM
Time to read-out: about 120 h (48 h before drug, then 72 h with drug)
Conditions: doxorubicin 100 nM for 72 h, roughly 30-40% inhibitory dose
Measurement: 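Luminescent ATP signal taken as viability with or without 100 nM doxorubicin for 72 h; mean of two wells set against non-targeting siRNA and turned into robust z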
Reading the numbers: viability z-score with doxorubicin: higher = more viable cells under doxorubicin; viability z-score without drug: higher = more viable cells with knock-down alone
Active means: 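a pool counts as active when its viability z-score with doxorubicin is -2 or below and its z-score without drug lies between -2 and 2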

gene knocked down | combined z-score class | viability z-score with doxorubicin | viability z-score without drug | activity call
Pou5f1 (POU domain, class 5, transcription factor 1) | high cell count with and without drug | 2.25 | 2.19 | inactive
Insig1 (insulin induced gene 1) | high cell count with doxorubicin only | 2.36 | 1.52 | inactive
Zbtb3 (zinc finger and BTB domain containing 3) | high cell count without drug only | 0.9 | 2.19 | inactive
Pcdhga2 (protocadherin gamma subfamily A, 2) | low cell count with doxorubicin only | -2.59 | -0.67 | active
Zfand1 (zinc finger, AN1-type domain 1) | no change with or without drug | -1.01 | -0.34 | inactive
Gtpbp3 (GTP binding protein 3) | no change with or without drug | -0.9 | -0.67 | inactive
Exoc3l2 (exocyst complex component 3-like 2) | no change with or without drug | 1.57 | 1.52 | inactive
Kcnd1 | high cell count without drug only | 0.79 | 2.7 | inactive
Hp1bp3 (heterochromatin protein 1, binding protein 3) | no change with or without drug | 0.67 | 0.67 | inactive
Optn (optineurin) | no change with or without drug | 1.46 | 0.84 | inactive
Olfm5 (olfactomedin 5) | no change with or without drug | 0.45 | 0.67 | inactive
Or1j21 (olfactory receptor family 1 subfamily J member 21) | low cell count with doxorubicin only | -3.04 | -1.52 | active
Tonsl (tonsoku-like, DNA repair protein) | no change with or without drug | -1.12 | -1.52 | inactive
Hoxd11 (homeobox D11) | no change with or without drug | -0.11 | -1.85 | inactive
Sertad4 (SERTA domain containing 4) | no change with or without drug | 0.22 | -0.51 | inactive
Rpl13 (ribosomal protein L13) | low cell count with and without drug | -8.09 | -7.25 | inactive
Krtap4-13 (keratin associated protein 4-13) | no change with or without drug | -1.12 | 1.52 | inactive
Ms4a3 (membrane-spanning 4-domains, subfamily A, member 3) | no change with or without drug | 0 | -0.17 | inactive
Med16 (mediator complex subunit 16) | no change with or without drug | 0.11 | -0.51 | inactive
Xrn1 (5'-3' exoribonuclease 1) | no change with or without drug | 0.22 | -1.35 | inactive
Slitrk6 (SLIT and NTRK-like family, member 6) | low cell count with doxorubicin only | -2.92 | -0.84 | active
Elob (elongin B) | no change with or without drug | -1.8 | 1.18 | inactive
Ubn2 (ubinuclein 2) | no change with or without drug | 0.45 | 0.51 | inactive
Tox (thymocyte selection-associated high mobility group box) | no change with or without drug | 1.01 | -0.51 | inactive
Asic4 (acid-sensing ion channel family member 4) | no change with or without drug | -0.34 | 0 | inactive
Vmn1r38 (vomeronasal 1 receptor 38) | high cell count with doxorubicin only | 3.82 | 1.52 | inactive
Ipo13 (importin 13) | no change with or without drug | -1.24 | -1.35 | inactive
Sbno2 (strawberry notch 2) | no change with or without drug | -0.9 | 0.51 | inactive
H2-Q5 (histocompatibility 2, Q region locus 5) | no change with or without drug | -0.22 | -0.67 | inactive
Or51t4 (olfactory receptor family 51 subfamily T member 4) | low cell count without drug only | -1.57 | -2.53 | inactive
Lrrc75b (leucine rich repeat containing 75B) | no change with or without drug | 0.45 | 0.34 | inactive
Col4a3 (collagen, type IV, alpha 3) | no change with or without drug | -0.45 | 0 | inactive
Ppme1 (protein phosphatase methylesterase 1) | no change with or without drug | -1.35 | -0.84 | inactive
Trim11 (tripartite motif-containing 11) | high cell count with doxorubicin only | 2.25 | 0.84 | inactive
